The results in this text go back to article PMC9658070.

Chains of the proteins cited; added tags and fusions are not shown. Lines headed by an entry give the natural chain unless they say otherwise; changes in a name come on top.
UniProt Q9HE07: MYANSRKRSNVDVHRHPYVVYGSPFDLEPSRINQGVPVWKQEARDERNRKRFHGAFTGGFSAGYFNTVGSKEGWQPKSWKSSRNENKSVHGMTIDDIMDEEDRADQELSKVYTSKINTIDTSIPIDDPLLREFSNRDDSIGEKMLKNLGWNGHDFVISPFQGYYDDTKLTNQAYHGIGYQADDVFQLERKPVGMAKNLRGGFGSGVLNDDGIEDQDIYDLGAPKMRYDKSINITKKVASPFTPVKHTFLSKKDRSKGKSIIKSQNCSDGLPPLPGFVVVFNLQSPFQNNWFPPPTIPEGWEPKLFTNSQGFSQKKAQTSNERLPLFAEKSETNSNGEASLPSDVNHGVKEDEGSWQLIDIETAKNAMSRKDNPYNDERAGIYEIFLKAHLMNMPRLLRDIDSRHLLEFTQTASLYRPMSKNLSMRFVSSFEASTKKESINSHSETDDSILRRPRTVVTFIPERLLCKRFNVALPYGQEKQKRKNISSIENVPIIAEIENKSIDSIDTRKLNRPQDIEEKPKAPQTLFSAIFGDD
UniProt O14187: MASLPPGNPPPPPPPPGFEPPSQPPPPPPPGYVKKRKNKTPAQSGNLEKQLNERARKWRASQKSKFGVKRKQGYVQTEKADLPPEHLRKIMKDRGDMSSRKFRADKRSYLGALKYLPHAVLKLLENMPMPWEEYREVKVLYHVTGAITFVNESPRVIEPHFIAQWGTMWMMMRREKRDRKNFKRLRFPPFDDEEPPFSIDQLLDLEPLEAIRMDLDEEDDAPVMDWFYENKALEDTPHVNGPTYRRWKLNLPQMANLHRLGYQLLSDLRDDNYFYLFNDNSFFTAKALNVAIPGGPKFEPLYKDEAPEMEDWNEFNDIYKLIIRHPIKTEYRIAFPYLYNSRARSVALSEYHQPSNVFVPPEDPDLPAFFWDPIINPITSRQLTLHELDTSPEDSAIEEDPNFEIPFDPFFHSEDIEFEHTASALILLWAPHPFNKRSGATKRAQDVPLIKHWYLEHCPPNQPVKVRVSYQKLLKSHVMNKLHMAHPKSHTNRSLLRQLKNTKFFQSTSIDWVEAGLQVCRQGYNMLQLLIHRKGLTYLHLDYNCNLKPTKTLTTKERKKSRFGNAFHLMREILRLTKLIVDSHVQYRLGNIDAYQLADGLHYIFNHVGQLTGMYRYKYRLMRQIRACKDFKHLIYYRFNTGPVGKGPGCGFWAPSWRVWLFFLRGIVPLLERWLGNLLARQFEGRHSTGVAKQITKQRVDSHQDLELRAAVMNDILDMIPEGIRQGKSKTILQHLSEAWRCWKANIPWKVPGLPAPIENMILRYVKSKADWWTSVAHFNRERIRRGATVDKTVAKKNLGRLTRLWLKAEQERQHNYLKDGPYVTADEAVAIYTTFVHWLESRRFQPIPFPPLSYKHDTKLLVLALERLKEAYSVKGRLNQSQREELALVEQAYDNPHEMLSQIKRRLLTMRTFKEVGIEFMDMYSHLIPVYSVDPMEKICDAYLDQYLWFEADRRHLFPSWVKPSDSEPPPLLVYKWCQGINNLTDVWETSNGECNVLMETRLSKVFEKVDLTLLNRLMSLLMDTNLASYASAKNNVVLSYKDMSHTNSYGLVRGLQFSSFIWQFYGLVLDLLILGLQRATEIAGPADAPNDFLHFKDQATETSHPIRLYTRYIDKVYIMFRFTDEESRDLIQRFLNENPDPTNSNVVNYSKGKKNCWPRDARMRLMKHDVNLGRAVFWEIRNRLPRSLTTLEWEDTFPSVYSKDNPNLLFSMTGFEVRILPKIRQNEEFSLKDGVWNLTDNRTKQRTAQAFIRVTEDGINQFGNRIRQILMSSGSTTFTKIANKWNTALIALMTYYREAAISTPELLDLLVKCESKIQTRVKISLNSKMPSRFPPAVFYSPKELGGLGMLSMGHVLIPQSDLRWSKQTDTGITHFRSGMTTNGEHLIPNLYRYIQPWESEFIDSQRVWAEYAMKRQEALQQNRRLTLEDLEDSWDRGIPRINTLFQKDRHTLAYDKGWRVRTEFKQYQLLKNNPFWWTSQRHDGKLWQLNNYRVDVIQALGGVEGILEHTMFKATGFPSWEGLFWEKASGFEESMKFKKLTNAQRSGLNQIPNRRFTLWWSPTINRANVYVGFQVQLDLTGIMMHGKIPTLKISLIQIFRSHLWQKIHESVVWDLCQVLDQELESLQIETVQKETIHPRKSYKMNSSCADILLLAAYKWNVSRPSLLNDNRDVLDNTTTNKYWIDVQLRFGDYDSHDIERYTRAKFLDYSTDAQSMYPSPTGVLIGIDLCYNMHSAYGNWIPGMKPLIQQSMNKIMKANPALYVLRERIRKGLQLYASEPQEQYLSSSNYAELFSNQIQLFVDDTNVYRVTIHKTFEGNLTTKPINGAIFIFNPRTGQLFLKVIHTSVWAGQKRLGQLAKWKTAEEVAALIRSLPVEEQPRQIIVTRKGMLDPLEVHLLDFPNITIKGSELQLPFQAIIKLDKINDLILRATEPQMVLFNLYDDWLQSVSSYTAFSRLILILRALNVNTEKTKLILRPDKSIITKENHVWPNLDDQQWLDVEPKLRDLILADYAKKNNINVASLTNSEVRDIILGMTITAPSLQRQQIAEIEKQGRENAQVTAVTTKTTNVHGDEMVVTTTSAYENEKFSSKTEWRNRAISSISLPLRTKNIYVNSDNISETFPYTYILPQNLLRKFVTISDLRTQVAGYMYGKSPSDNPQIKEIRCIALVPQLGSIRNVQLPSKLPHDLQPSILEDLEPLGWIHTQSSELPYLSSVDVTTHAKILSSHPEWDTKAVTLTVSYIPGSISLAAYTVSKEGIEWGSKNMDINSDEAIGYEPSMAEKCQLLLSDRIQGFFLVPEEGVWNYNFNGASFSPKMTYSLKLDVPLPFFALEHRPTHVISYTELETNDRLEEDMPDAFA
UniProt Q9UT24: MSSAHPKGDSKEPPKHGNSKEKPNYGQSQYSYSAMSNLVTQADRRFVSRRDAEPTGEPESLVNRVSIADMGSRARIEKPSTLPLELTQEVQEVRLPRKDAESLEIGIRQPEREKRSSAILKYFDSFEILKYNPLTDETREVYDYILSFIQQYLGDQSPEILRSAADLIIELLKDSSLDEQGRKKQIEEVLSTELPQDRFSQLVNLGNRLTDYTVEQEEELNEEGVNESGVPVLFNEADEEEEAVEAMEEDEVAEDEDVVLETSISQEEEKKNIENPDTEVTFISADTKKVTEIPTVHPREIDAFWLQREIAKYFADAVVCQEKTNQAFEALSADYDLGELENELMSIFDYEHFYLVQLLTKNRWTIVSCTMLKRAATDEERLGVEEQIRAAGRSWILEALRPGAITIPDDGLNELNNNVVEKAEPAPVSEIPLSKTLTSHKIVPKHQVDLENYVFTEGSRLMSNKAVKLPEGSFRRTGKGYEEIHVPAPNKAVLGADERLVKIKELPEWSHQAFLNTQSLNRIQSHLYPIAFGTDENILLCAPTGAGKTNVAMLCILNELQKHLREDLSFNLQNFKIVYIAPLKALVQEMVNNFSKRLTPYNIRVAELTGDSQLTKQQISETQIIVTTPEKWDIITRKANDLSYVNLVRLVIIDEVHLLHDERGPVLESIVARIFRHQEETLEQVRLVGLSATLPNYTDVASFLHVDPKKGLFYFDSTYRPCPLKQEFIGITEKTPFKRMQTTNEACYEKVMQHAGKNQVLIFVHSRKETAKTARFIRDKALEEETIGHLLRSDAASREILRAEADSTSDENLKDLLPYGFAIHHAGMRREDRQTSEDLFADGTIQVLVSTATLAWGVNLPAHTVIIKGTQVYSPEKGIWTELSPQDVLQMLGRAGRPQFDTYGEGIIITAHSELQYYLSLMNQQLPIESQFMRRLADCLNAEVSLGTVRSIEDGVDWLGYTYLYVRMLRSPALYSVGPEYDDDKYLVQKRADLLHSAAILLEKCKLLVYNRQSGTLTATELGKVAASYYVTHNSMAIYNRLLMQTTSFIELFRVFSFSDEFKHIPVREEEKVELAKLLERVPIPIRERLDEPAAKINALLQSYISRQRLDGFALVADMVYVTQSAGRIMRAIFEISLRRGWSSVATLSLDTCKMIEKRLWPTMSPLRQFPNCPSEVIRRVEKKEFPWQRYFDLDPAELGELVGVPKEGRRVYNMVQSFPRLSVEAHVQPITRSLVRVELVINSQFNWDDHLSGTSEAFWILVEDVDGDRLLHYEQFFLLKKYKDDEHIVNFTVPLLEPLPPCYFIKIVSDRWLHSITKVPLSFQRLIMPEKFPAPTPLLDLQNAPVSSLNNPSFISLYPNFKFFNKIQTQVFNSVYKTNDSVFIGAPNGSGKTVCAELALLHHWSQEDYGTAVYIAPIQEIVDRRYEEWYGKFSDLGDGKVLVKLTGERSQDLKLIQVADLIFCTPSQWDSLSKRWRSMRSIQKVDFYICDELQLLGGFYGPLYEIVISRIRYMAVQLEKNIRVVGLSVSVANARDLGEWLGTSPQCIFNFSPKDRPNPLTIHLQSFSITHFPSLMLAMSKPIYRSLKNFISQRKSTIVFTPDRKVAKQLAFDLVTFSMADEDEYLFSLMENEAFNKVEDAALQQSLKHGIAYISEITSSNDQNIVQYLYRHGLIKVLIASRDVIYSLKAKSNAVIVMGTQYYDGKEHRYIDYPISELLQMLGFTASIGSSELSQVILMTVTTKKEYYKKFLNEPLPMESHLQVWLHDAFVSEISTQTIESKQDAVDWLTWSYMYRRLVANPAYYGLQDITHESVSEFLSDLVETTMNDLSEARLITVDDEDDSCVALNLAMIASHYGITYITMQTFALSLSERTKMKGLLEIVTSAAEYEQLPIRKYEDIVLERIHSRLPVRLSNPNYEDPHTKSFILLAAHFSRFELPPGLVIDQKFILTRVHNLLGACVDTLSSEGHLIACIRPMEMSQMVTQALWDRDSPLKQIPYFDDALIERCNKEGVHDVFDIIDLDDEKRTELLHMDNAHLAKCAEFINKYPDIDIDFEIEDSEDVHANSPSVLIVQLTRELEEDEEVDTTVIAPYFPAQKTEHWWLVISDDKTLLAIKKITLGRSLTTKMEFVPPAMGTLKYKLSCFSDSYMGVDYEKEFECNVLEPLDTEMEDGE
UniProt O42945: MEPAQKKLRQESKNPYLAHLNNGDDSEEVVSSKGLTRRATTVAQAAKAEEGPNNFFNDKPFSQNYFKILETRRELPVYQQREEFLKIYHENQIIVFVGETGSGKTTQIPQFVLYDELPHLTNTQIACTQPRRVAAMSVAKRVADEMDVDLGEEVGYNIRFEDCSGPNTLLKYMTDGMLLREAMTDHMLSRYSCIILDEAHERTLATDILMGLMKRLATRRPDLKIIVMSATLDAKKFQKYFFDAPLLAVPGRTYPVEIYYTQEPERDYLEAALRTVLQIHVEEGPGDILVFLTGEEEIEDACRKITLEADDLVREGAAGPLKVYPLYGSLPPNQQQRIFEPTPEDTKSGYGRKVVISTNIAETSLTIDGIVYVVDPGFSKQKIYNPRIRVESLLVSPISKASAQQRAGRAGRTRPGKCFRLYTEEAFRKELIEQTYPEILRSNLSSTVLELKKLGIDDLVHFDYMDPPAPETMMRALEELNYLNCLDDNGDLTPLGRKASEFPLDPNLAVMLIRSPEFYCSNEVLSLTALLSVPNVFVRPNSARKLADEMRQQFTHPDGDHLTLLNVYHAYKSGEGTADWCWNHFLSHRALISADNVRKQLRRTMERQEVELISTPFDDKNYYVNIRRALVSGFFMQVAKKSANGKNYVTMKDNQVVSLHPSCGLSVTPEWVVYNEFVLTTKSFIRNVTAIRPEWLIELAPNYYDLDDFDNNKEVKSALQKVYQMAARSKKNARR

Results are given in words; binding and its absence hold for the method and conditions named. In cells and extracts the contact can be indirect. A yes stands for co-enrichment or nearness to the bait. Other partners may have been found.

Test in all cases: affinity purification with mass spectrometry; tandem affinity purification of TAP-tagged bait from cycling S. pombe cells (IPP150 buffer: 50 mM Tris pH 8.0, 150 mM NaCl, 10% glycerol, 0.1% NP-40; IgG Sepharose, TEV cleavage, Calmodulin Sepharose, EGTA elution), LC-MS/MS; wild-type cells, also Gih35-TAP from wdr83Δ cells and Wdr83-TAP from gih35Δ cells
In assay [1] the target is Gpl1-TAP (S. pombe) (UniProt Q9HE07).
In assay [2] the target is T1, Gih35-TAP (S. pombe) (UniProt Q9HE06).
T1 sequence: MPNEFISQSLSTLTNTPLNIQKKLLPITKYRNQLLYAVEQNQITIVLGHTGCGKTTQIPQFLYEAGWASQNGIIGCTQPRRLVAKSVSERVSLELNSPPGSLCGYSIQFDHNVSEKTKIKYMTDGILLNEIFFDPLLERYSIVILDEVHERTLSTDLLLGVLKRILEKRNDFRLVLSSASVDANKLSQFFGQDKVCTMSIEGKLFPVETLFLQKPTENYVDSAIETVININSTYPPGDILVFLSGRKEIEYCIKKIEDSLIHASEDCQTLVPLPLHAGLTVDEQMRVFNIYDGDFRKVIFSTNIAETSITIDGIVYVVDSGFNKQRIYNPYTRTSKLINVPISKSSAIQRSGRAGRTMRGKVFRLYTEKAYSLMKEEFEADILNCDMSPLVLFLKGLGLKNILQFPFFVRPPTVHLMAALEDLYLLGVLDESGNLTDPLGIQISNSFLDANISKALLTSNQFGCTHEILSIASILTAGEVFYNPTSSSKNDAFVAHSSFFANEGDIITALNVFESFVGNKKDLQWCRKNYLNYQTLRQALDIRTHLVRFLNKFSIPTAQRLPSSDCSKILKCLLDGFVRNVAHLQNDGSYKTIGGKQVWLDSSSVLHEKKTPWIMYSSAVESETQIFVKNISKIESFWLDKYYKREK

Assay [3] addresses Wdr83-TAP (S. pombe).

For the molecule “U5 snRNP complex subunit Spp42 (from UniProt O14187 1-2363)”, the binding entry in assay [1] and in assay [2] was “binds” in each case.

With “U5 snRNP complex ATPase subunit Brr2 (from UniProt Q9UT24 1-2176)”, the binding entry in assay [1] and in assay [2] was “binds” in each case.

Turning to Gpl1 (from UniProt Q9HE07), the binding result in assay [2] was “binds”.

Take “ATP-dependent RNA helicase Prp43 (from UniProt O42945 1-735)”: the binding result in assay [1] and in assay [2] was “binds” in each case.

Turning to “ATP-dependent RNA helicase Mtl1 (S. pombe)”, the binding result in assay [2] is listed as “binds”.

B1: Prp19 complex subunit Cdc5 (protein, UniProt P39964 1-757)
chain: MVVLKGGAWKNTEDEILKAAVSKYGKNQWARISSLLVRKTPKQCKARWYEWIDPSIKKTEWSREEDEKLLHLAKLLPTQWRTIAPIVGRTATQCLERYQKLLDDLEAKENEQLGLISGEGAEAAAPVNDPNSRLRFGEAEPNLETLPALPDAIDMDEDEKEMLSEARARLANTQGKKAKRKDREKQLELTRRLSHLQKRRELKAAGINIKLFRRKKNEMDYNASIPFEKKPAIGFYDTSEEDRQNFREKREADQKIIENGIRNNEMESEGRKFGHFEKPKPIDRVKKPNKDAQEEKMRRLAEAEQMSKRRKLNLPSPTVSQDELDKVVKLGFAGDRARAMTDTTPDANYSTNLLGKYTQIERATPLRTPISGELEGREDSVTIEVRNQLMRNREQSSLLGQESIPLQPGGTGYTGVTPSHAANGSALAAPQATPFRTPRDTFSINAAAERAGRLASERENKIRLKALRELLAKLPKPKNDYELMEPRFADETDVEATVGVLEEDATDRERRIQERIAEKERLAKARRSQVIQRDLIRPSVTQPEKWKRSLENEDPTANVLLKEMIALISSDAINYPFGNSKVKGTANKVPDLSNEEIERCRLLLKKEIGQLESDDYIQFEKEFLETYSALHNTSSLLPGLVIYEEDDEDVEAAEKFYTNDIQRDLAKKALECNKLENRVYDLVRSSYEQRNFLIKKISHAWKALQTERKNLTCYEFLYNQERLALPNRLEAAEIELSKMQQIEAYAQQDYARVTGQN
Take B1: the binding result in assay [1], in assay [3] and in assay [2] was “binds” in each case.

B2: Gih35 (protein, UniProt Q9HE06 1-647)
chain: T1 sequence
In the case of B2, in assay [1], the binding entry is listed as “binds”.

B3: U5 snRNP GTPase subunit Cwf10 (protein, UniProt O94316 1-984)
chain: MMEEDLYDEFGNYIGPENEEDEEELFPQAPSPTIAQVPSFEEVIPDEELEDVERAEEMALSHLEPQNAVVLHEDKQYYPSAEEVYGSNVDIMVQEQDTQPLSQPIIEPIRHKRIAIETTNVPDTVYKKEFLFGLLTGTDDVRSFIVAGHLHHGKSALLDLLVYYTHPDTKPPKRRSLRYTDTHYLERERVMSIKSTPLTLAVSDMKGKTFAFQCIDTPGHVDFVDEVAAPMAISDGVVLVVDVIEGVMINTTRIIKHAILHDMPIVLVLNKVDRLILELRLPPNDAYHKLRHVIDEVNDNICQISKDLKYRVSPELGNVCFASCDLGYCFTLSSFAKLYIDRHGGIDVDLFSKRLWGDIYFDSKTRKFAKQSLDGSGVRSFVHFILEPLYKLHTLTISDEAEKLKKHLSSFQIYLKPKDYLLDPKPLLQLICASFFGFPVGFVNAVTRHIPSPRENAARKASQSYIGPINSSIGKAILEMSREESAPLVMHVTKLYNTVDANNFYAFARVYSGQVKKGQKVKVLGENYSLEDEEDMVVAHIAEICVPCARYRLHVDGAVAGMLVLLGGVDNSISKTATIVSDNLKDDPYIFRPIAHMSESVFKVAVEPHNPSELPKLLDGLRKTNKSYPLSITKVEESGEHTIFGTGEMYMDCLLYDLRTLYSEIEIRVSDPVARFCETAVDTSSIKCFSDTPNKKNRITMVVEPLEKGISNDIENGKVNINWPQKRISEFFQKNYDWDLLASRSIWAFGPDDRGTNILRDDTLSTDVDKNVLNSVKEYIKQGFQWGTREGPLCDETIRNVNFRLMDVVLAPEQIYRGGGQIIPTARRVCYSSFLTASPRLMEPVYMVEVHAPADSLPIIYDLLTRRRGHVLQDIPRPGSPLYLVRALIPVIDSCGFETDLRVHTQGQAMCQMVFDHWQVVPGDPLDKSIKPKPLEPARGSDLARDFLIKTRRRKGLVEDVSTTRYFDQEMIDSLKEAGVVLSL
With B3, the binding entry in assay [1], in assay [3] and in assay [2] was “binds” each time.

B4: ubiquitin-protein ligase E4 Prp19 (protein, UniProt O14011 1-488)
chain: MFCSISGETPKEPVISRVSGNVYEKRLIEQVIRETSKDPVTQQECTLEDLVPVKVPDFVRPRPPSATSLPALLSLFQEEWDSVALEQFELRRNLTETKQELSTALYSLDAALRVISRLTKERDEAREALAKFSDNIGTVSSKTIEVQEVEMGESDDQLKTSLRSTVEKTFQELSSKRKRTKLQPKWATDDAVSQLLQATPSTILENLETESTTSFFPSPENSSFVLCLHKDELLCLDIQSNSTLKIFEGSALACCWLTSSKIAVATADAISIFEFPVSSSGLQSVGEPTSSIPIDEKVNFLQAHPSGEYLLAASNEKCYIFSLKSQVYNITVAQHITSLAVHPDGNLFVAGLENGELRFFETSSGNELTKFGPHSSPVKTLQFGENGYWLVVTTNDDSDIFIWDLRKSELVQKIPLQTKVAAVSLDITSQLLVSSDGETLYVHIYVKSSKSWRCMSQTHVSSISNLVWLNELHQLLFSTSNGAILRLG
Consider B4, for which the binding entry in assay [1], in assay [3] and in assay [2] was “binds” each time.

B5: ATP-dependent RNA helicase Prp22 (protein, UniProt O42643 1-1168)
chain: MDDLKELEYLSLVSKVASEIRNHTGIDDNTLAEFIINLHDQSKNYDEFKNNVLSCGGEFTDSFLQNISRLIKEIKPKDDIPTDNVNNGSNSVNGASHDLDSKDVDKQHQRKMFPGLSIPNSTNNLRDRPALMDNAMDELEELSTLAKTRRNDRDSRRDERHYLNGIRERRERSISPSFSHHSRTSISGQSHSSRSSRGPLLNAPTLYGIYSGVVSGIKDFGAFVTLDGFRKRTDGLVHISNIQLNGRLDHPSEAVSYGQPVFVKVIRIDESAKRISLSMKEVNQVTGEDLNPDQVSRSTKKGSGANAIPLSAQNSEIGHVNPLETFTSNGRKRLTSPEIWELQQLAASGAISATDIPELNDGFNTNNAAEINPEDDEDVEIELREEEPGFLAGQTKVSLKLSPIKVVKAPDGSLSRAAMQGQILANDRREIRQKEAKLKSEQEMEKQDLSLSWQDTMSNPQDRKFAQDVRDSAARQLTSETPSWRQATRNANISYGKRTTLSMKEQREGLPVFKLRKQFLEAVSKNQILVLLGETGSGKTTQITQYLAEEGYTSDSKMIGCTQPRRVAAMSVAKRVAEEVGCRVGEEVGYTIRFEDKTSRMTQIKYMTDGMLQRECLVDPLLSKYSVIILDEAHERTVATDVLFGLLKGTVLKRPDLKLIVTSATLDAERFSSYFYKCPIFTIPGRSYPVEIMYTKQPEADYLDAALMTVMQIHLSEGPGDILVFLTGQEEIDTSCEILYERSKMLGDSIPELVILPVYSALPSEIQSRIFEPAPPGGRKVVIATNIAETSLTIDGIYYVVDPGFVKQSCFDPKLGMDSLIVTPISQAQARQRSGRAGRTGPGKCYRLYTESAYRNEMLPSPIPEIQRQNLSHTILMLKAMGINDLLNFDFMDPPPAQTMIAALQNLYALSALDDEGLLTPLGRKMADFPMEPQLSKVLITSVELGCSEEMLSIIAMLSVPNIWSRPREKQQEADRQRAQFANPESDHLTLLNVYTTWKMNRCSDNWCYEHYIQARGMRRAEDVRKQLIRLMDRYRHPVVSCGRKRELILRALCSGYFTNVAKRDSHEGCYKTIVENAPVYMHPSGVLFGKAAEWVIYHELIQTSKEYMHTVSTVNPKWLVEVAPTFFKFANANQVSKTKKNLKVLPLYNRFEKPDEWRISKQRKGGR
Consider B5, for which the binding entry in assay [1], in assay [3] and in assay [2] was “binds” each time.
